The list shows a part of the results. The data scatter; read single values as rough.

The chains behind the UniProt entries cited, without tags or fusion partners. Where a name states a change or a piece, a line headed by the entry shows the natural chain unless it says otherwise.
UniProt A4D1P6: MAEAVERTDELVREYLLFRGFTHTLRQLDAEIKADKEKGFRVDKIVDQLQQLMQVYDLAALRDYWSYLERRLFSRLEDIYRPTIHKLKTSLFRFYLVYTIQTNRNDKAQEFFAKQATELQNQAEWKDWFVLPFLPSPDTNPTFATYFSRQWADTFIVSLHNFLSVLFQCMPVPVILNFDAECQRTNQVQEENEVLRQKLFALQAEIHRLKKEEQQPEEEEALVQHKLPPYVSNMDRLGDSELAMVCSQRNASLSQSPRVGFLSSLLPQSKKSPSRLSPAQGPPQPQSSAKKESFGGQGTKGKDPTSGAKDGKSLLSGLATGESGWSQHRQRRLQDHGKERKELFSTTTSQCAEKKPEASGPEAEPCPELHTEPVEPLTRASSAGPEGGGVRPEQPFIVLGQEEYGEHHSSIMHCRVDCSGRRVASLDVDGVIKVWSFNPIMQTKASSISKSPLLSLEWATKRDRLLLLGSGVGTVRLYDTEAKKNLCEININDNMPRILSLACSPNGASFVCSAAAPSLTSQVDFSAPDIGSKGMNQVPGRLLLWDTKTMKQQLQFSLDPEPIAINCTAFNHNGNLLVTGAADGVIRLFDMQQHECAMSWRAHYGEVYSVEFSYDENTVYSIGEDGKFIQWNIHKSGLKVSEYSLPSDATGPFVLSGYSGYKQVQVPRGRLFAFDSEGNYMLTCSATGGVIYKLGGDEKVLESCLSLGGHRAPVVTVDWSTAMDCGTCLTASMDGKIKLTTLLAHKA

The first assay addresses T1, WDR91 C366 (UniProt A4D1P6).
T1 sequence (whole entry): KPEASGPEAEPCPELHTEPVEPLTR
Nature of the assay: log2 mean competition ratio of IA-DTB cysteine labelling (DMSO/compound) (log2 ratio); higher = stronger cysteine engagement by compound. As to conditions: 50 µM; treatment time: 4 h; cell line lysate: HEK293T. How it is done: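 IA-DTB competitive cysteine chemoproteomics in HEK293T RIPA lysate. Lysates were treated with compound 29 or 30 at 50 or 200 µM for 4 h, then IA-DTB (500 µM, 1 h), trypsin-digested, NeutrAvidin-enriched and analysed by diaPASEF. Competition ratio = intensity DMSO / intensity compound (n=4 treated, n=64 DMSO); binding: mean log2 CR ≥ 1 and p ≤ 0.05 plus QC filters. Target is the cysteine site.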
For `O=C(CCl)N[C@H]1CCCc2ccccc21`, the “log2 mean competition ratio” value is 0.158.

Consider `O=C(CCl)N[C@@H]1CCCc2ccccc21`, for which the “log2 mean competition ratio” value is -0.264.

The assay is the same for the next values; noted with them: 200 µM; treatment time: 4 h; cell line lysate: HEK293T.
Turning to `O=C(CCl)N[C@H]1CCCc2ccccc21`, the “log2 mean competition ratio” value was -0.133.

As to `O=C(CCl)N[C@@H]1CCCc2ccccc21`, the “log2 mean competition ratio” value was -0.0656.

These data come from the supplement of paper PMC11732987, “Enantioselective OTUD7B fragment discovery through chemoproteomics screening and high-throughput optimisation” (Communications Chemistry, 2025).
